# PubChem BioAssay AID292 (DTP/NCI, 2004)
# The list is a part of this screen's results and no random one: it is rich in T/C values a quarter to a half above the control, in often repeated tests (any T/C) and in doses without a T/C. Other doses and runs of a compound stand elsewhere. T/C gives the treated animals as a percentage of the vehicle group. Some doses have a count of surviving animals in place of a T/C: the source files T/C as zero there, which appears to mark a toxic dose or a test without result, not a measured value. Some doses without a T/C left all or most animals alive at the check, yet need not have been tolerated: survival well below the control is almost never listed, so the zero probably covers shortened survival too. Counts of survivors are from the toxicity check (mostly the fifth day) where no day follows; animals may have died later. Schedule codes are those of the source, read here as Q, the interval in days (D) or hours (H), X, the number of doses. Some entries hold several experiments; their values stand side by side, smallest first. Where survival is the endpoint, this PubChem deposit counts one and a half times the control or more as active, and values a quarter to a half above the control carry no call in these data; other NCI protocols may use other cut-offs. Some T/C values are followed by the survivors on the day toxicity was checked, most often the fifth; where none is given, no animal had died by that day.
# System: B6C3F1 mice, ip Sarcoma M5076, median survival T/C
# Assay: NCI In Vivo Anticancer Drug Screen. Data for tumor model Sarcoma M5076 (intraperitoneal) in B6C3F1 mice
# Settings: T/C endpoint: median survival time, higher T/C = longer survival
# Procedure, shortened: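 Survival measured in treated (T) and vehicle control (C) mice with transplantable tumour; result given as T divided by C.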
# [1] = dose: 400.0 mg/kg/injection, schedule: Q04DX004 (ip), vehicle: Klucel (hydroxypropylcellulose) (HPC)
# [2] = dose: 800.0 mg/kg/injection, schedule: Q04DX004 (ip), vehicle: Klucel (hydroxypropylcellulose) (HPC)
# [3] = dose: 800.0 mg/kg/injection, schedule: Q04DX004 (ip), vehicle: saline with Tween-80
# [4] = dose: 12.0 mg/kg/injection, schedule: Q04DX005 (ip), vehicle: Klucel (hydroxypropylcellulose) (HPC)
# [5] = dose: 600.0 mg/kg/injection, schedule: Q04DX004 (ip), vehicle: Klucel (hydroxypropylcellulose) (HPC)
structure (smiles),measurement,setting,value
C=Cc1cc(OC)c2c(c1)c(=O)oc1c2cc(OC)c2c(O)ccc(C3OC(C(C)O)C(O)C3O)c21 (stereo unspecified),survivor count,[1],9 of 10 on day 14
same,survivor count,[2],3 of 10 on day 14
C/C=C(\C)C(=O)OC1C(C)=C2C(C1OC(=O)CCCCC)C(C)(OC(C)=O)CC(OC(=O)CCC)C1(O)C2OC(=O)C1(C)O (stereo unspecified),survivor count,"dose: 4.0 mg/kg/injection, schedule: Q04DX004 (ip), vehicle: Klucel (hydroxypropylcellulose) (HPC)",3 of 10 on day 14 and 5 of 10 on day 14
same,survivor count,"dose: 8.0 mg/kg/injection, schedule: Q04DX004 (ip), vehicle: Klucel (hydroxypropylcellulose) (HPC)",0 of 10 on day 14
same,survivor count,"dose: 16.0 mg/kg/injection, schedule: Q04DX004 (ip), vehicle: Klucel (hydroxypropylcellulose) (HPC)",0 of 10 on day 14
CC1=NN(c2ccccc2)C(=O)C1=Nc1c(C)[nH]n(-c2ccccc2)c1=O,survivor count,[3],6 of 10 on day 14
CN(C)CCOc1cccc2c1C(=O)c1ccccc1C2=O,survivor count,"dose: 200.0 mg/kg/injection, schedule: Q04DX004 (ip), vehicle: water",0 of 10 on day 14
same,survivor count,"dose: 400.0 mg/kg/injection, schedule: Q04DX004 (ip), vehicle: water",0 of 10 on day 14
same,survivor count,"dose: 800.0 mg/kg/injection, schedule: Q04DX004 (ip), vehicle: water",0 of 10 on day 14
CCN(CC)CCn1[nH]c2c3ccc(=O)cc3sc3c(NCCN)ccc1c32,T/C,"dose: 3.12 mg/kg/injection, schedule: Q04DX004 (ip), vehicle: water",145 % of control
same,T/C,"dose: 3.13 mg/kg/injection, schedule: Q04DX004 (ip), vehicle: water",140 % of control
same,survivor count,"dose: 50.0 mg/kg/injection, schedule: Q04DX004 (ip), vehicle: water",0 of 10 on day 14 and 1 of 10 on day 14
Nc1nc(=S)c2[nH]cnc2[nH]1,T/C,"dose: 1.5 mg/kg/injection, schedule: Q01DX004 (ip), vehicle: Klucel (hydroxypropylcellulose) (HPC)",146 % of control
same,T/C,"dose: 1.5 mg/kg/injection, schedule: Q04DX004 (ip), vehicle: Klucel (hydroxypropylcellulose) (HPC), evaluated on day 60",130 and 147 % of control
same,T/C,"dose: 1.5 mg/kg/injection, schedule: Q04DX004 (ip), vehicle: Klucel (hydroxypropylcellulose) (HPC), evaluated on day 75","116, 119, 129, 131 [9 of 10 alive on day 14], 136, 141, 151 % of control"
same,T/C,"dose: 1.5 mg/kg/injection, schedule: Q04DX005 (ip), vehicle: Klucel (hydroxypropylcellulose) (HPC)","114, 117, 132, 145 % of control"
same,T/C,"dose: 3.0 mg/kg/injection, schedule: Q04DX004 (ip), vehicle: Klucel (hydroxypropylcellulose) (HPC), evaluated on day 60","133, 141, 150 % of control"
same,T/C,"dose: 3.0 mg/kg/injection, schedule: Q04DX004 (ip), vehicle: Klucel (hydroxypropylcellulose) (HPC), evaluated on day 75","121, 130, 133, 137, 141, 152, 165 % of control"
same,T/C,"dose: 3.0 mg/kg/injection, schedule: Q04DX005 (ip), vehicle: Klucel (hydroxypropylcellulose) (HPC)","129, 130, 132, 201 % of control"
same,T/C,"dose: 6.0 mg/kg/injection, schedule: Q04DX004 (ip), vehicle: Klucel (hydroxypropylcellulose) (HPC), evaluated on day 60","152, 153, 169 % of control"
same,T/C,"dose: 6.0 mg/kg/injection, schedule: Q04DX004 (ip), vehicle: Klucel (hydroxypropylcellulose) (HPC), evaluated on day 75","128, 137, 139 [9 of 10 alive on day 14], 144 [9 of 10 alive on day 9], 153, 156, 161 % of control [8 of 10 alive on day 14]"
same,T/C,"dose: 6.0 mg/kg/injection, schedule: Q04DX005 (ip), vehicle: Klucel (hydroxypropylcellulose) (HPC)","93, 136, 141, 183 % of control"
same,T/C,"dose: 12.0 mg/kg/injection, schedule: Q04DX004 (ip), vehicle: Klucel (hydroxypropylcellulose) (HPC), evaluated on day 60","168, 173, 181 % of control"
same,T/C,"dose: 12.0 mg/kg/injection, schedule: Q04DX004 (ip), vehicle: Klucel (hydroxypropylcellulose) (HPC), evaluated on day 75","141, 143, 161, 177, 183, 193 % of control [7 of 10 alive on day 14]"
same,survivor count,"dose: 12.0 mg/kg/injection, schedule: Q04DX004 (ip), vehicle: Klucel (hydroxypropylcellulose) (HPC)",7 of 10 on day 9
same,T/C,[4],179 % of control
same,survivor count,[4],10 of 10 on day 9
same,survivor count,"dose: 24.0 mg/kg/injection, schedule: Q04DX004 (ip), vehicle: Klucel (hydroxypropylcellulose) (HPC)",5 of 10 on day 14 and 9 of 10 on day 14
C=CCNC(=O)c1ccccc1SC(C)=O,survivor count,[3],3 of 10 on day 9
Nc1ccc2ccc(NS(=O)(=O)N3CCCCC3)cc2c1,T/C,[3],125 % of control [7 of 10 alive on day 14]
COc1ccc(-n2c(SCC(=O)NC(=O)Nc3ccccc3)nc3c(Br)cc(Br)cc3c2=O)cc1,survivor count,"dose: 300.0 mg/kg/injection, schedule: Q04DX004 (ip), vehicle: Klucel (hydroxypropylcellulose) (HPC)",8 of 10 on day 14
O=C1N[C@H]2[C@H](O)[C@H](O)[C@@H](O)[C@H](O)[C@@H]2c2cc3c(c(O)c21)OCO3,T/C,"dose: 0.75 mg/kg/injection, schedule: Q01DX009 (ip), vehicle: saline + alcohol",126 and 131 % of control
same,T/C,"dose: 0.78 mg/kg/injection, schedule: Q01DX009 (ip), vehicle: saline + alcohol",132 % of control [7 of 10 alive on day 14]
same,T/C,"dose: 1.5 mg/kg/injection, schedule: Q01DX009 (ip), vehicle: saline + alcohol",129 and 144 % of control
same,T/C,"dose: 1.56 mg/kg/injection, schedule: Q01DX009 (ip), vehicle: saline + alcohol",129 % of control [9 of 10 alive on day 14]
same,T/C,"dose: 3.0 mg/kg/injection, schedule: Q04DX004 (ip), vehicle: saline + alcohol",125 and 129 % of control
same,T/C,"dose: 3.12 mg/kg/injection, schedule: Q01DX009 (ip), vehicle: saline + alcohol",143 % of control [9 of 10 alive on day 14]
same,survivor count,"dose: 6.0 mg/kg/injection, schedule: Q01DX009 (ip), vehicle: saline + alcohol",6 of 10 on day 14
same,T/C,"dose: 6.0 mg/kg/injection, schedule: Q04DX004 (ip), vehicle: saline + alcohol",132 and 136 % of control
same,survivor count,"dose: 12.0 mg/kg/injection, schedule: Q01DX009 (ip), vehicle: saline + alcohol",0 of 10 on day 14 and 1 of 10 on day 14
same,T/C,"dose: 12.0 mg/kg/injection, schedule: Q04DX004 (ip), vehicle: saline + alcohol",140 [7 of 10 alive on day 14] and 144 % of control [8 of 10 alive on day 14]
same,survivor count,"dose: 12.5 mg/kg/injection, schedule: Q01DX009 (ip), vehicle: saline + alcohol",0 of 10 on day 14
same,survivor count,"dose: 24.0 mg/kg/injection, schedule: Q04DX004 (ip), vehicle: saline + alcohol",0 of 10 on day 14 and 3 of 10 on day 14
CN(C)CCC(=O)C(=Cc1ccc(O)cc1)C(=O)CCN(C)C,survivor count,"dose: 400.0 mg/kg/injection, schedule: Q04DX004 (ip), vehicle: saline",0 of 10 on day 14
CCN(CC)C(=Nc1ccc(Cl)c(Cl)c1)SC(NC=O)=C(Cl)Cl,survivor count,"dose: 400.0 mg/kg/injection, schedule: Q04DX004 (ip), vehicle: Klucel + Tween-80",10 of 10 on day 14
same,survivor count,"dose: 800.0 mg/kg/injection, schedule: Q04DX004 (ip), vehicle: Klucel + Tween-80",6 of 10 on day 14
CC1OC2CC(O)C1(O)C1=C2C(O)=C(C(N)=O)C(=N)C1=O (stereo unspecified),survivor count,"dose: 10.0 mg/kg/injection, schedule: Q04DX004 (ip), vehicle: saline",2 of 10 on day 14
same,survivor count,"dose: 20.0 mg/kg/injection, schedule: Q04DX004 (ip), vehicle: saline",0 of 10 on day 14
Cn1c(-c2ccc(/C=N\N3CCN(/N=C/c4ccc(-c5c[n+]6ccsc6n5C)cc4)CC3)cc2)c[n+]2ccsc12,survivor count,"dose: 12.0 mg/kg/injection, schedule: Q04DX004 (ip), vehicle: saline with Tween-80",0 of 10 on day 14
same,survivor count,"dose: 24.0 mg/kg/injection, schedule: Q04DX004 (ip), vehicle: saline with Tween-80",0 of 10 on day 14
COc1ccc2c(c1)n([O-])c1ccccc1[n+]2=O,survivor count,"dose: 200.0 mg/kg/injection, schedule: Q04DX004 (ip), vehicle: saline with Tween-80",0 of 10 on day 14
same,survivor count,"dose: 400.0 mg/kg/injection, schedule: Q04DX004 (ip), vehicle: saline with Tween-80",0 of 10 on day 14
CNC(=O)c1ccccc1CNC(=S)Nc1cccc(C)c1,survivor count,[5],5 of 5 on day 14
CN1C2C=CC(=O)C1C1C(=O)N(c3ccccc3)C(=O)C12 (stereo unspecified),survivor count,[1],0 of 10 on day 14
same,survivor count,[2],0 of 10 on day 14
O=C(Nc1cccc2ccccc12)C1C(=O)C(=O)N(c2cccc3ccccc23)C1=O (stereo unspecified),survivor count,[5],5 of 10 on day 14
